{"source": "patent US7211599B2", "about": "“Use of etodolac to treat hyperplasia” (The Regents of the University of California, priority 2002, dated 2007)", "system": "transgenic adenocarcinoma mouse prostate (TRAMP) mouse", "assay": "TRAMP animal model: histopathological evaluation of the prostate (grade 1-6)", "assay_type": "in vivo", "set-up": "key: 1: Normal Prostate; 2: Early intra-epithelial neoplasia; 3: Advanced intra-epithelial neoplasia; 4: Well-differentiated adeno-carcinoma; 5: Moderately differentiated adeno-carcinoma; 6: Poorly differentiated adeno-carcinoma", "settings": "individual TRAMP mice, 18 weeks", "procedure": "The transgenic adenocarcinoma mouse prostate (TRAMP) mouse, was used to evaluate the effect of R-etodolac on prostate cancer progression. The etodolac was compounded into the diet at 312 ppm (low dose) and 1250 ppm (high dose) and the animals were treated for 18 weeks. At necoscopy, the urogenital system was removed and weighed. The prostate lobes, seminal vesicles, lungs, liver, and periaortic lymph nodes were preserved and sectioned for histological evaluation and graded on a 1-6 scale for degree of hyperplasia/neoplasia/carcinoma.", "note": "Where “and” joins values, the source holds several entries; their conditions need not be identical. Equal values may be shown once. At least one compound was matched to its structure with a doubt left.", "data": [{"compound": "CCc1cccc2c3c([nH]c12)[C@@](CC)(CC(=O)O)OCC3", "note": "[R-etodolac]", "values": [{"measurement": "Histopathological grade, Anterior prostate", "setting": "High dose (1250 ppm in diet)", "value": "3 (5×) and 4"}, {"measurement": "Histopathological grade, Dorsal prostate", "setting": "High dose (1250 ppm in diet)", "value": "4 (5×) and 3"}, {"measurement": "Histopathological grade, Lateral prostate", "setting": "High dose (1250 ppm in diet)", "value": "4 (2×) and 3 (4×)"}, {"measurement": "Histopathological grade, Ventral prostate", "setting": "High dose (1250 ppm in diet)", "value": "4 and 2 and 3 (4×)"}, {"measurement": "Histopathological grade, Anterior prostate", "setting": "Low dose (312 ppm in diet)", "value": "3 and 4 (4×) and 6"}, {"measurement": "Histopathological grade, Dorsal prostate", "setting": "Low dose (312 ppm in diet)", "value": "4 (2×) and 6 (2×) and 5 (2×)"}, {"measurement": "Histopathological grade, Lateral prostate", "setting": "Low dose (312 ppm in diet)", "value": "3 and 6 (2×) and 4 and 5"}, {"measurement": "Histopathological grade, Ventral prostate", "setting": "Low dose (312 ppm in diet)", "value": "6 (3×) and 3 (2×) and 4"}]}]}
